# Experimental data published in PMC10112905.
# Protein sequences, listed by entry. Tags and fused reporters are not part of them. Lines headed by an entry give the natural chain unless they say otherwise; changes in a name come on top.
# UniProt Q99KJ8: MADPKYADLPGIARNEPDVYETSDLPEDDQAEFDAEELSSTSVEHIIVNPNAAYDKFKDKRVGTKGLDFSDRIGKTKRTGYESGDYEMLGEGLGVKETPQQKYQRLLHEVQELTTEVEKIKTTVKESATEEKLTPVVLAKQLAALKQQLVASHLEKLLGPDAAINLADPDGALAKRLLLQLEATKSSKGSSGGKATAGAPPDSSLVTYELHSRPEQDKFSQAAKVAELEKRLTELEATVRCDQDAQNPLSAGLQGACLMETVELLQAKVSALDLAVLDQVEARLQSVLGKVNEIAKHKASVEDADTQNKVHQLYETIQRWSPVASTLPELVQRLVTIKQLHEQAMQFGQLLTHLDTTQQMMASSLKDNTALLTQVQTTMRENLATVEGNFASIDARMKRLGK
# UniProt O35685: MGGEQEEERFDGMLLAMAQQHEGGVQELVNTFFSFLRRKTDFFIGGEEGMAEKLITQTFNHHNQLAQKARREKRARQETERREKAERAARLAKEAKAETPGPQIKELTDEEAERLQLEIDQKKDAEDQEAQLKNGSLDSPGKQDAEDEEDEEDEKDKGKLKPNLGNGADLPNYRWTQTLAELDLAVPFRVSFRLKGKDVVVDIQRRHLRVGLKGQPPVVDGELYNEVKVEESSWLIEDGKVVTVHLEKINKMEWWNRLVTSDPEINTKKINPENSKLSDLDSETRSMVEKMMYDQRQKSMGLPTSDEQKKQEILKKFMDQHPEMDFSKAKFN
# UniProt P0C0S6: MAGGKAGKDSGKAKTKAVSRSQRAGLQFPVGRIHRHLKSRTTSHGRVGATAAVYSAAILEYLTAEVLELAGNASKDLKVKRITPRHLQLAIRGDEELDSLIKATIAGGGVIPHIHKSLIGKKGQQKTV
# No constants are given. Whether binding was seen depends on the method and setting. In cells and extracts the contact can be indirect. Here binding means that the protein was enriched with, or labelled near, the bait; the list need not be complete.
# T1: spastin (mouse (endogenous in testis)) (UniProt Q9QYY8)
# T1 sequence: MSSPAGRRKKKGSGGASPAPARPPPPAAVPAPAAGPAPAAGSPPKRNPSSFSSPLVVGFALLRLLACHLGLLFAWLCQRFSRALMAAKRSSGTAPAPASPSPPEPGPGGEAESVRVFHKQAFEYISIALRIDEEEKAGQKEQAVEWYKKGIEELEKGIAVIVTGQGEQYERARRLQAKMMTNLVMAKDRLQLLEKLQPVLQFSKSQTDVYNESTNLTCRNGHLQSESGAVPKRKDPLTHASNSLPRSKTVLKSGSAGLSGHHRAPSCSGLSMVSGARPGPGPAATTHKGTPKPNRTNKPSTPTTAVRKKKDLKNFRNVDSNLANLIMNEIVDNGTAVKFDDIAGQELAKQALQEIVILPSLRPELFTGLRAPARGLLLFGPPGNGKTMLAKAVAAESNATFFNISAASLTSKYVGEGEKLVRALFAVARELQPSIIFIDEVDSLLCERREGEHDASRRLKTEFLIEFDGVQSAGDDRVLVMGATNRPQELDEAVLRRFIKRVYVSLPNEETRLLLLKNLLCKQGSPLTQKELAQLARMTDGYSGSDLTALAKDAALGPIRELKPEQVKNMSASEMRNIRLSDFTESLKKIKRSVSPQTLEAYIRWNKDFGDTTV
# Molecular target: T1, spastin (mouse (endogenous in testis))
# Experiment: affinity purification with mass spectrometry; endogenous SPAST precipitated from pre-cleared wild-type mouse testis lysate (1% NP-40 in PBS, protease inhibitors; 4 mg lysate) with SPAST antibody (Abcam ab31850, 5 ug) covalently coupled to AminoLink Plus resin, overnight at 4°C; control: antibody with non-amine reactive control resin; eluate digested with trypsin, LC-MS/MS; n=3
row,Molecule,binding
1,DCTN2 (from UniProt Q99KJ8 1-402),binds
2,NUDC (from UniProt O35685 1-332),binds
3,histone H2A.Z (from UniProt P0C0S6 1-128),binds
4,"SEPT2 (protein, UniProt P42208 1-361) MSKQQPTQFINPETPGYVGFANLPNQVHRKSVKKGFEFTLMVVGESGLGKSTLINSLFLTDLYPERIIPGAAEKIERTVQIEASTVEIEERGVKLRLTVVDTPGYGDAINCRDCFKTIISYIDEQFERYLHDESGLNRRHIIDNRVHCCFYFISPFGHGLKPLDVAFMKAIHNKVNIVPVIAKADTLTLKERERLKKRILDEIEEHSIKIYHLPDAESDEDEDFKEQTRLLKASIPFSVVGSNQLIEAKGKKVRGRLYPWGVVEVENPEHNDFLKLRTMLITHMQDLQEVTQDLHYENFRSERLKRGGRKVENEDMNKDQILLEKEAELRRMQEMIARMQAQMQMQMQGGDSDSGALGQHV",binds
